Results reported in PubChem BioAssay AID1347076 (National Center for Advancing Translational Sciences (NCATS), 2019).
Hit rate of the full screen: of about 400,000 compounds, about 13,000 (3.2%) were called active. Inconclusive results, whose numbers are uncertain, are shown with a selection of clear calls. The call rests on the fitted dose curve; in most records, active means well fitted cell-killing curve with a large enough effect; inconclusive means small, poorly fitted or top-dose-only effect, or effect the other way; inactive means flat fitted curve, though single readings scatter. A potency beside an inconclusive call is a rough fit, not a confirmed value.

Assay: qHTS assay for MDR1-selective chemotherapeutics: Primary screen using the drug-selected MDR subline cells KB-V1; further: nearly all actives have a fitted effect of over 60% in size
Details: KB-V1 MDR cells viability, CellTiter-Glo, 72 h; series mostly up to 46.1 µM
Outline: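 Potencies derive from concentration-effect curves fitted to normalized luminescence (CellTiter-Glo) of KB-V1 cells treated for 72 h at 37 degrees C in phenol-red-free DMEM containing 10% FBS.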
Potency means the concentration at half of the fitted maximal effect.

Row | Compound | Potency
1 | COc1ccc(CCNC(=O)c2ccc3c(c2)c(C)c(C)n3Cc2ccc(F)cc2)c(OC)c1OC | inactive
2 | CC[C@]12C(=O)N(C)C[C@H]([C@@H]3C(=O)N(C)C(=O)[C@@H]31)N2C(=O)c1ccc(F)cc1 | inactive
3 | C=Cc1ccc(Cn2c(C)c(C(=O)NCc3ccccc3C(F)(F)F)sc2=O)cc1 | inconclusive: 10.3 µM [cytotoxic, partial curve]
4 | COc1ccccc1N1CC(C)(C)C(=O)N(C(=O)c2ccc(Cl)cc2)C1=S | inconclusive: 29.1 µM [cytotoxic, single point]
5 | Cc1nnc(NC(=O)CSCc2cc(=O)c3cc(Cl)ccc3[nH]2)s1 | inconclusive: 23.1 µM [rising, partial curve]
6 | Cc1cc(C(=O)COC(=O)c2cnccn2)c(C)n1-c1ccc(Br)cc1 | active: 14.6 µM
7 | O=C(CSc1nnc(NC2CCCCC2)s1)NCc1ccco1 | inconclusive: 16.4 µM [cytotoxic, partial curve]
8 | O=C(O)COc1ccc(/C=C2/SC(=S)N(Cc3ccccc3)C2=O)cc1 | inactive
9 | O=S(=O)(NCc1ccc(F)cc1)c1ccc(-c2cnc(C3CC3)o2)cc1 | inconclusive: 20.6 µM [cytotoxic, single point]
10 | CCOC(=O)c1cnc(SCC(=O)Nc2sc(C)c(C)c2C#N)nc1N | inconclusive: 4.61 µM [cytotoxic, full curve]
11 | COc1cccc(CNC(=O)[C@H](CC(C)C)NC(=O)N2CCn3c2nc2ccccc23)c1 | inconclusive: 2.59 µM [cytotoxic, partial curve, poor fit]
12 | CC(=O)c1cccc(NC(=O)C2(C)Cc3c(-c4cccc(C(F)(F)F)c4)ccnc3O2)c1 (stereo not given) | inconclusive: 18.4 µM [cytotoxic, single point]
13 | O=c1c(-c2ccccc2)nc2ccccc2n1C(CCc1ccccc1)c1nc2ccccc2[nH]1 (stereo not given) | inconclusive: 20.6 µM [cytotoxic, partial curve, poor fit]
14 | CN1CCc2nc(SCc3ccc(C(C)(C)C)cc3)c(C#N)cc2C1 | inconclusive: 20.6 µM [cytotoxic, single point]
15 | O=S(=O)(c1cccc(F)c1)N1CCN(c2nc(-c3cccnc3)nc3ccccc23)CC1 | inconclusive: 25.9 µM [cytotoxic, single point]
16 | CCOC(=O)/C(=C\c1cccnc1)C(=O)c1cc(C(C)=O)c(Nc2ccccc2)s1 | active: 6.51 µM
17 | COC(=O)C(CCSC)NC(=O)CNS(=O)(=O)c1ccc(Cl)cc1 (stereo not given) | inconclusive: 29.1 µM [cytotoxic, partial curve, poor fit]
18 | O=C(Nc1cccc2nsnc12)c1cccs1 | inconclusive: 29.1 µM [cytotoxic, single point]
19 | O=c1c2c([nH]c3ccccc13)CCCCCC2 | inconclusive: 20.6 µM [cytotoxic, single point]
20 | COc1ccccc1CNC(=S)NCCc1ccccc1 | inconclusive: 29.1 µM [cytotoxic, single point]
21 | Cc1cccc(C2N(c3nccs3)C(=O)C3CCCN32)c1 (stereo not given) | inactive
22 | Cc1cccc(NC(=O)C2CCN(S(=O)(=O)c3ccc(F)cc3)CC2)c1C | inconclusive: 29.1 µM [cytotoxic, single point]

Row | Compound | Potency
23 | Cc1ccc(S(=O)(=O)NCCCNS(=O)(=O)c2ccc(C)cc2)cc1 | active: 14.6 µM
24 | COCc1nc2ccccc2n1Cc1c(F)cccc1Cl | inconclusive: 29.1 µM [cytotoxic, single point]
25 | O=C(NCc1ccc(Cl)cc1)c1cc([N+](=O)[O-])ccc1Cl | inconclusive: 32.6 µM [rising, single point]
26 | CC(=O)N1CCN(c2nc(CC(C)C)c3c(c2C#N)CCC3)CC1 | inactive
27 | CCC(NC(=O)c1cc(COc2ccc(F)cc2Cl)on1)c1ccncc1 (stereo not given) | inactive
28 | Cc1noc(C)c1S(=O)(=O)N(C)C[C@H]1OCCCC[C@@H](C)Oc2ccc(NC(=O)CCCN(C)C)cc2C(=O)N([C@H](C)CO)C[C@@H]1C | inconclusive: 2.91 µM [rising, full curve, poor fit]
29 | Nc1ncnc2c1ncn2[C@@H]1O[C@H](C(=O)N2CCN(c3ccc(Cl)cn3)CC2)[C@@H](O)[C@H]1O | inactive
30 | CCCCCCCCN1C(=O)[C@H](CC(=O)NCCCOC)C[C@@]2(C(=O)OCC)CCCC=C12 | inconclusive: 18.4 µM [cytotoxic, partial curve, poor fit]
31 | Nc1nonc1-n1nnc(C(=O)N/N=C/c2cccnc2)c1CSc1ccccc1 | inconclusive: 3.66 µM [rising, full curve, poor fit]
32 | CC(C)(C)OC(=O)NCCCCCNC(=O)c1nc[nH]c1C(=O)NCC(=O)OCc1ccccc1 | inconclusive: 29.1 µM [cytotoxic, single point]
33 | CCOC(=O)C1C(C(=O)OC)=C(c2ccc(OC)cc2)c2ccccc2N1S(=O)(=O)C(F)(F)F (stereo not given) | inactive
34 | CN1C(=O)N(C)c2ccc(C=O)c3cccc1c23 | inconclusive: 18.4 µM [cytotoxic, single point]
35 | CCOC(=O)C1=C(COC(=O)/C=C/c2ccc(OCC)c(OC)c2)NC(=O)NC1C (stereo not given) | inactive
36 | Cc1cc(NC(=O)c2ccc(F)cc2)n(-c2ccccn2)n1 | inconclusive: 3.66 µM [cytotoxic, partial curve]
37 | COc1ccc(S(=O)(=O)N2CCCC(C(=O)NCC3CCCO3)C2)cc1C (stereo not given) | inconclusive: 29.1 µM [cytotoxic, single point]
38 | Cc1occc1-c1nnc(SCC(=O)Nc2nc3ccccc3s2)o1 | inconclusive: 32.6 µM [cytotoxic, single point]
39 | COCCN(C(=O)C1CCN(C(=O)c2ccccc2C)CC1)c1c(N)n(CC(C)C)c(=O)[nH]c1=O | inactive
40 | CCN(CC)CC(C)CNC(=O)c1cc(-c2ccc(Br)s2)nc2ccccc12 (stereo not given) | inconclusive: 23.1 µM [cytotoxic, single point]
41 | O=Cc1cn(CC(=O)Nc2ccc3c(c2)OCO3)c2ccccc12 | inconclusive: 11.6 µM [cytotoxic, partial curve]
42 | COc1cc2c(cc1OC)C1(CCCC1)C(N)=C2C#N | inconclusive: 29.1 µM [cytotoxic, single point]
43 | NC(=O)c1sc2nc3c(c(-c4ccc(Cl)cc4)c2c1N)CCCC3 | active: 2.91 µM
44 | COc1ccc(C(NC(=O)/C=C/c2ccco2)c2ccc(OC)cc2)cc1 | inconclusive: 6.51 µM [cytotoxic, full curve, poor fit]

Five neighbouring entries from above:
Row | Compound | Potency
4 | COc1ccccc1N1CC(C)(C)C(=O)N(C(=O)c2ccc(Cl)cc2)C1=S | inconclusive: 29.1 µM [cytotoxic, single point]
5 | Cc1nnc(NC(=O)CSCc2cc(=O)c3cc(Cl)ccc3[nH]2)s1 | inconclusive: 23.1 µM [rising, partial curve]
6 | Cc1cc(C(=O)COC(=O)c2cnccn2)c(C)n1-c1ccc(Br)cc1 | active: 14.6 µM
7 | O=C(CSc1nnc(NC2CCCCC2)s1)NCc1ccco1 | inconclusive: 16.4 µM [cytotoxic, partial curve]
8 | O=C(O)COc1ccc(/C=C2/SC(=S)N(Cc3ccccc3)C2=O)cc1 | inactive

The listing continues:

Row | Compound | Potency
45 | CCN(C(=N)N=C(N)N)c1ccccc1 | inconclusive: 29.1 µM [rising, single point]
46 | O=C(C[C@H]1C(=O)N(C2CCCCC2)C[C@@H]1c1ccccc1)Nc1ccc(Br)cc1 | inconclusive: 11.6 µM [cytotoxic, single point]
47 | COc1cccc(NC(=O)CN(C)C(=O)Cc2ccc(Cl)cc2Cl)c1 | inactive
48 | CC[C@]1(O)CC2CN(CCc3c([nH]c4ccccc34)[C@@](C(=O)OC)(c3cc4c(cc3OC)N(C=O)[C@H]3[C@@](O)(C(=O)OC)[C@H](OC(C)=O)[C@]5(CC)C=CCN6CC[C@]43[C@@H]65)C2)C1 (stereo not given in full) | active: 20.6 µM
49 | CCOc1ccc(NC(=O)C2CC(=O)N(c3ccc(C(C)C)cc3)C2)cc1 (stereo not given) | inconclusive: 29.1 µM [rising, single point]
50 | COc1ccc(C(=O)N/C(=C\c2ccccc2)C(=O)Nc2ccc(C(=O)NCC(=O)O)cc2)cc1 | inactive
51 | CCCCN(C(=O)c1ccccc1OCc1ccc(F)cc1)c1c(N)n(CCC)c(=O)[nH]c1=O | inconclusive: 18.4 µM [rising, partial curve]
52 | CCOc1ccc(N(CC(=O)N2CCCCCC2)S(=O)(=O)c2ccc(C)cc2)cc1 | inconclusive: 4.11 µM [cytotoxic, full curve]
53 | CCOC(=O)CC(NC(=O)Cn1nnc(-c2ccc(C(F)(F)F)cc2)n1)c1ccc(OC)cc1 (stereo not given) | inconclusive: 16.4 µM [cytotoxic, partial curve]
54 | CCOC(=O)[C@]12CCCC=C1N(Cc1ccc3c(c1)OCO3)C(=O)[C@H](CC(=O)N1CCC(c3ccccc3)CC1)C2 | active: 23.1 µM
55 | CCOC(=O)C1(CCCc2ccccc2)CCN(C(=O)c2cc(C)nc(C)n2)CC1 | inconclusive: 2.31 µM [cytotoxic, full curve, poor fit]
56 | COc1cccc(-c2nc(NCC3CCCO3)c3ccccc3n2)c1O (stereo not given) | inconclusive: 29.1 µM [cytotoxic, single point]
57 | CC(=O)Nc1ccc(-c2cc(C(=O)O)c3c(-c4ccccc4)[nH]nc3n2)cc1 | inactive
58 | CC(C)CNC(=O)c1cccc(C(=O)NCC(C)C)c1 | inconclusive: 29.1 µM [cytotoxic, single point]
59 | CN(Cc1ccccc1)S(=O)(=O)c1ccc(OCC(=O)Nc2cccc([N+](=O)[O-])c2)cc1 | inconclusive: 23.1 µM [cytotoxic, single point]
60 | Cc1ccc(S(=O)(=O)N2CCCCC2)cc1NC(=O)COC(=O)CNC(=O)c1cc(Cl)cc([N+](=O)[O-])c1 | inactive
61 | CCCCn1c(SCC(=O)Nc2cc(C)on2)nc2ccccc2c1=O | inactive
62 | O=S(Cc1ccc(Br)cc1)Cc1nnc(SCc2c(F)cccc2Cl)n1-c1ccccc1 (stereo not given) | active: 2.31 µM
63 | CN(c1ccc(O)cc1)c1nc(-c2ccccc2)cs1 | inconclusive: 29.1 µM [cytotoxic, single point]
64 | CNCCC=C1c2ccccc2CCc2ccccc21 | active: 20.6 µM
65 | CCCCN(C=O)c1c(CC)nc2c(OCc3cc(Cl)cc(Cl)c3)cccn12 | inconclusive: 18.4 µM [cytotoxic, single point]
